Our source for the binding values is patent US20130171063A1 (LUDWIG INSTITUTE FOR CANCER RESEARCH, published 2013).

Chains of the proteins cited; added tags and fusions are not shown. Lines headed by an entry give the natural chain unless they say otherwise; changes in a name come on top.
UniProt P08581: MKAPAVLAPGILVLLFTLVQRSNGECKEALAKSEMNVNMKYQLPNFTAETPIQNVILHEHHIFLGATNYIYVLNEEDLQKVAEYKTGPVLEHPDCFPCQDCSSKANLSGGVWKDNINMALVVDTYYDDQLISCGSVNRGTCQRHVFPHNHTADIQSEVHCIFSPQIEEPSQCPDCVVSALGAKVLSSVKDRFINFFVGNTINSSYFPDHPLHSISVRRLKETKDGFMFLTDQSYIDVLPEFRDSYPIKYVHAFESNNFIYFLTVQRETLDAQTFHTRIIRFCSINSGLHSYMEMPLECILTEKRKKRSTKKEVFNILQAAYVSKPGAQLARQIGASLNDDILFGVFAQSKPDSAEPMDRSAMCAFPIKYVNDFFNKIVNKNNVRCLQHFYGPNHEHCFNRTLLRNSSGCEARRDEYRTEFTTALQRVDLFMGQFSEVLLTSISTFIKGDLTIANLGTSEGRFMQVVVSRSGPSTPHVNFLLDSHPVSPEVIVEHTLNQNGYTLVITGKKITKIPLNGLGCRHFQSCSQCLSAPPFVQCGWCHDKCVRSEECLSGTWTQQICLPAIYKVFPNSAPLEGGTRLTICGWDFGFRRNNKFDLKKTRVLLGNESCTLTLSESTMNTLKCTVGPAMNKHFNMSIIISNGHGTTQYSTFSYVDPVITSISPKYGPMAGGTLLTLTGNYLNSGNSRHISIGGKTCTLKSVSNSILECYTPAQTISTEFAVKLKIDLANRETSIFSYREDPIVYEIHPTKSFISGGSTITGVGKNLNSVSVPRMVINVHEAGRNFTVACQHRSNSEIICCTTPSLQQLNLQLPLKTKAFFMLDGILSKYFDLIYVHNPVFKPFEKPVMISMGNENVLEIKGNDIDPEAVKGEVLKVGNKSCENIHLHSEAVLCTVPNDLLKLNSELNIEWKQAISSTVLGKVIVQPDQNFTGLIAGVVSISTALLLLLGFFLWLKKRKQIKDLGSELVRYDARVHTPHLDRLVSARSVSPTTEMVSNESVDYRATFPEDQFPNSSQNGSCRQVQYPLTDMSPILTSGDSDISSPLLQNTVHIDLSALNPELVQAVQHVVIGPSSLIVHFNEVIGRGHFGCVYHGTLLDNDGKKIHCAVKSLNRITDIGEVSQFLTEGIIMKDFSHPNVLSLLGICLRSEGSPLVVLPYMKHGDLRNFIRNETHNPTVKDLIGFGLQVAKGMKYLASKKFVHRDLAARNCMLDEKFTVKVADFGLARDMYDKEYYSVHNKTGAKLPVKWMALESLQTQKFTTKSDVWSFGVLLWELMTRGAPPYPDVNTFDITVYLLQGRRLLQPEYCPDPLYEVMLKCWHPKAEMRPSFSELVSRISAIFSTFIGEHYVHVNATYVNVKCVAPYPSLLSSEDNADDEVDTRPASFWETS

For assay [1], the target named is processed c-Met (disulphide linked alpha/beta heterodimer) (human) (UniProt P08581). As to the kind of experiment: immunoprecipitation from A549 cells, western blot with 25H2 under reducing conditions. On the technique in general: A western blot detects proteins with antibodies after separation by electrophoresis.
For assay [2] the target is unchanged. Description: immunoprecipitation from A549 cells, reducing blot with 25H2.
Assay [3] shares this target. Description: immunoblot of c-Met immunoprecipitated from A549 cells with LMH 85, probed with LMH 87.

Results are given in words; binding and its absence hold for the method and conditions named. A result given as binding can be weak or reduced; the word gives no strength.

B1: antibody LMH 85 (antibody, V domains shown)
VH: QVQLQQSGAELAKPGASVKMSCKASGYTFIIYWIHWIKQRPGQGLEWIGYINPSNDYTEYNQKFKDKATLTADKSSNTAFMQLSSLTSEDSAVYYCARDSYDYDDGAYAMDYWGQGTSVTVSS
VL: QIVLSQSPAILSASPGEKVTMTCRASSGVNYMHWYQQKPGSSPKPWIYATSNLASGVPARFSGSGSGTSYSLTISRVEAEDAATYYCQQWISHPFTFGSGTKLEIK
notes: Mouse monoclonal antibody from a hybridoma
Regarding B1, the binding result in assay [1] and in assay [2] was “binds” each time.

B2: antibody LMH 87 (antibody, V domains shown)
VH: QVQLQQSGPELVKSGASVKMSCKASGNTLKDDHVHWVKQRPGQGLEWIGWIYPGGGRTRYNEKFKGKTTLTADKPSSTVNMLLSSLTSEDSAIYFCTNLVFDVWGAGTTVTVSS
VL: DIVMTQAAPSVPVTPGESVSISCRSSKSLLHSNGNTYLYWFLQRPGQSPQVLIYRMSNLASGVPDRFSGSGSGTAFTLRIRRVEAEDVGVYYCMQNLEYPFTFGGGTKLEIK
notes: as for B1
Regarding B2, the binding entry in assay [3] is “binds”.
